This series in a line: Plasma adipokine and cytokine levels (LINCOplex). As to conditions: high cholesterol diet. It is filed as in vivo, mice.

Take “HNGF6A: HN analogue, SEQ ID NO:16 MAPRGASCLLLLTGEIDLPVKRRA (listed as Homo sapiens)”: where the note is “ApoE-deficient mice, plasma”, the “levels of adipokines and cytokines between Group 3 and Group 4” value was “no observed differences”. In addition, for the setting “Group 4 vs Group 3, ApoE-deficient mice”, the “plasma level of t-PA and VEGF” value was “unaffected”.

The record behind these values is patent US20130123168A1, “HUMANIN AND HUMANIN-ANALOGUES FOR THE MANAGEMENT OF ATHEROSCLEROSIS” (The Regents of the University of California, priority 2011, published 2013).
